Laboratory results published in PMC12411612.
These are yes or no findings as the source states them, for the method shown. Binding seen in cells or lysates may run through a third protein. Here binding means that the protein was enriched with, or labelled near, the bait; the list need not be complete. Tags and fused reporters may be left off the sequences shown.

Chains of the proteins cited; added tags and fusions are not shown.
UniProt P09874: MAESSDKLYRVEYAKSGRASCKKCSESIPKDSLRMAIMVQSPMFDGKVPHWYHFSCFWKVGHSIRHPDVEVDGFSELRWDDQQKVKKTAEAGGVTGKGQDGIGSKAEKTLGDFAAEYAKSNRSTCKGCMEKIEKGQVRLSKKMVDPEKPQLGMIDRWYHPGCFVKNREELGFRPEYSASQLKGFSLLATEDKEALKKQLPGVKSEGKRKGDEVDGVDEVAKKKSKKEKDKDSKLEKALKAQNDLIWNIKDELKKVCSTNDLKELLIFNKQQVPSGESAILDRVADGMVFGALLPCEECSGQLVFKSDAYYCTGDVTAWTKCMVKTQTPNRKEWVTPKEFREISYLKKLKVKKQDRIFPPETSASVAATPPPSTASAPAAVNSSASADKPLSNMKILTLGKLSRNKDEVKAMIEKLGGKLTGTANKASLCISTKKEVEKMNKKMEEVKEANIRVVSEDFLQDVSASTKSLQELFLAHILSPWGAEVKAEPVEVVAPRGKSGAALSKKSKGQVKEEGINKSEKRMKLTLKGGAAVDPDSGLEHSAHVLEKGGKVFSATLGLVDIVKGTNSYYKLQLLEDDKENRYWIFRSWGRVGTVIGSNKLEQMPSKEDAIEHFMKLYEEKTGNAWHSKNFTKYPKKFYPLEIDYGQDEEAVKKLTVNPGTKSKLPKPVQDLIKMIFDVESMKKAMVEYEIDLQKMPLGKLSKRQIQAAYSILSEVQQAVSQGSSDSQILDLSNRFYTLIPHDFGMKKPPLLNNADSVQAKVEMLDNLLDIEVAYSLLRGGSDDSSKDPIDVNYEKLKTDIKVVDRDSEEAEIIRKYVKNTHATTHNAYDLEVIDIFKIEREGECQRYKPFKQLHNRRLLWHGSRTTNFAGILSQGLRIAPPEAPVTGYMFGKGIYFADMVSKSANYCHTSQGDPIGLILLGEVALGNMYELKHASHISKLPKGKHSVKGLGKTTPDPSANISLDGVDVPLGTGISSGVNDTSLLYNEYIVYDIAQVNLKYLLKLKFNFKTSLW

Target: Flag-tagged PARP1 (Flag-hPARP1), poly(ADP-ribose) polymerase 1 (human) (UniProt P09874)
Assay: affinity purification with mass spectrometry; nuclear extracts of T/G HA-VSMCs with the Flag-PARP1 vector or an empty vector; anti-FLAG M2 affinity gel overnight at 4 °C; additional band around 150 kDa analysed by LC–MS/MS

- binding: binds
B1: myocardin (endogenous, T/G HA-VSMC) (protein, UniProt Q8IZQ8 1-938)
chain: MTLLGSEHSLLIRSKFRSVLQLRLQQRRTQEQLANQGIIPPLKRPAEFHEQRKHLDSDKAKNSLKRKARNRCNSADLVNMHILQASTAERSIPTAQMKLKRARLADDLNEKIALRPGPLELVEKNILPVDSAVKEAIKGNQVSFSKSTDAFAFEEDSSSDGLSPDQTRSEDPQNSAGSPPDAKASDTPSTGSLGTNQDLASGSENDRNDSASQPSHQSDAGKQGLGPPSTPIAVHAAVKSKSLGDSKNRHKKPKDPKPKVKKLKYHQYIPPDQKAEKSPPPMDSAYARLLQQQQLFLQLQILSQQQQQQQHRFSYLGMHQAQLKEPNEQMVRNPNSSSTPLSNTPLSPVKNSFSGQTGVSSFKPGPLPPNLDDLKVSELRQQLRIRGLPVSGTKTALMDRLRPFQDCSGNPVPNFGDITTVTFPVTPNTLPNYQSSSSTSALSNGFYHFGSTSSSPPISPASSDLSVAGSLPDTFNDASPSFGLHPSPVHVCTEESLMSSLNGGSVPSELDGLDSEKDKMLVEKQKVINELTWKLQQEQRQVEELRMQLQKQKRNNCSEKKPLPFLAASIKQEEAVSSCPFASQVPVKRQSSSSECHPPACEAAQLQPLGNAHCVESSDQTNVLSSTFLSPQCSPQHSPLGAVKSPQHISLPPSPNNPHFLPSSSGAQGEGHRVSSPISSQVCTAQMAGLHSSDKVGPKFSIPSPTFSKSSSAISEVTQPPSYEDAVKQQMTRSQQMDELLDVLIESGEMPADAREDHSCLQKVPKIPRSSRSPTAVLTKPSASFEQASSGSQIPFDPYATDSDEHLEVLLNSQSPLGKMSDVTLLKIGSEEPHFDGIMDGFSGKAAEDLFNAHEILPGPLSPMQTQFSPSSVDSNGLQLSFTESPWETMEWLDLTPPNSTPGFSALTTSSPSIFNIDFLDVTDLNLNSSMDLHLQQW
